The record followed here is publication PMC6977653.

The chains behind the UniProt entries cited, without tags or fusion partners.
UniProt P49841: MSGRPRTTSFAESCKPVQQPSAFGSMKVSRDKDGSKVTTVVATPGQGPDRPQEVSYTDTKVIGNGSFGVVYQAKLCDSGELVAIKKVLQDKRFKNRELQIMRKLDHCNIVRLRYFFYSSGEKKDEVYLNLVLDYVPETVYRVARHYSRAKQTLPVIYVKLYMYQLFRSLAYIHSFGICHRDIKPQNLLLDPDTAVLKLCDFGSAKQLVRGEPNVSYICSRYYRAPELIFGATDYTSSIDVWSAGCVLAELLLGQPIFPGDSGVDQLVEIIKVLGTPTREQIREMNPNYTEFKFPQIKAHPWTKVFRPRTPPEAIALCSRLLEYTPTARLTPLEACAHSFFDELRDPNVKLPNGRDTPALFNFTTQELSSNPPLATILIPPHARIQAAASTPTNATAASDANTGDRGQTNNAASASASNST

These are yes or no findings as the source states them, for the method shown. Binding seen in cells or lysates may run through a third protein. Here binding means that the protein was enriched with, or labelled near, the bait; the list need not be complete.

For this test, the target named is T1, FHL3 (in the co-immunoprecipitation with mass analysis) (UniProt Q13643).
T1 sequence: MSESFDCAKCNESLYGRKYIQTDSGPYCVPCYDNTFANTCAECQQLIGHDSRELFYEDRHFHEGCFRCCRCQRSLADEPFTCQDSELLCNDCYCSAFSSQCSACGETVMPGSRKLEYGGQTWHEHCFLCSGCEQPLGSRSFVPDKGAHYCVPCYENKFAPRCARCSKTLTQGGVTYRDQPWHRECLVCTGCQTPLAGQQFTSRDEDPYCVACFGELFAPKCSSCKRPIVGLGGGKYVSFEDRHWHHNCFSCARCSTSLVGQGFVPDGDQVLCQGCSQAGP
The test is described as follows: affinity purification with mass spectrometry; co-immunoprecipitation and mass analysis; data not provided; cells not told.

“GSK3β (found in the co-immunoprecipitation with mass analysis) (from UniProt P49841 1-420) (enzyme)”: the binding result is given as “binds”.
